Record: PubChem BioAssay AID504791 (Drosophila RNAi Screening Center, 2011)
In all, the deposit lists about 23,000 reagents; below is a random part of those that have a named target and a result. Over the whole deposit, 199 (0.86%) were called active. 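Plate-scaled ratios behind the calls are not deposited; printed light signals are raw; many rows marked increased or decreased are still called inactive.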 Entries without a mark were called inactive. Names joined by + are all predicted targets of the reagent.

Test: 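Factors in Argonaute-based small RNA production and activity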 (primary screen)
Cell system: Drosophila S2-derived reporter cells
Reagent: long dsRNA against Drosophila genes, about 150-250 ng dsRNA per well (siRNA assay); about 80-120 ng (miRNA assay)
Time to read-out: about 5 days (siRNA assay); about 4 days (miRNA assay)
Treatment: copper sulfate induction of reporters: 25 µM (siRNA assay); 200 mM stated (miRNA assay), 1-2 days before reading
Measured: 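Dual luciferase assay: Renilla to firefly signal ratio in each well, scaled to the mean ratio of its plate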
Reading the numbers: siRNA reporter hit score: higher = 3 marks a strong hit with raised ratio; -3 a strong hit with lowered ratio
Call rule: 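a well was a first-pass pick when its plate-scaled ratio rose above 1.5 (siRNA assay) or 1.6 (miRNA assay), or dropped below 0.6; a gene counted only if two separate dsRNAs agreed on retest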

gene | DRSC id | siRNA reporter hit score | stable siRNA reporter change | miRNA reporter change | stable assay Renilla, run 1 (luminescence) | stable assay firefly, run 1 (luminescence)
Rpp21 (Ribonuclease P/MRP subunit p21) | DRSC22480 | – | – | – | 2512 | 2.53e5
rt (rotated abdomen) | DRSC11391 | – | – | – | 6483 | 3.52e5
CG14883 | DRSC15007 | – | – | – | 7058 | 4.60e5
RanBP3 (Ran binding protein 3) | DRSC14217 | – | – | – | 8399 | 3.38e5
RanBP3 (Ran binding protein 3) | DRSC23153 | – | – | – | 3780 | 2.94e5
hbs (hibris) | DRSC07627 | – | – | – | 6523 | 3.22e5
Syx1A (Syntaxin 1A) | DRSC15359 | – | – | – | 5639 | 2.87e5
Syx1A (Syntaxin 1A) | DRSC21554 | – | – | – | 9222 | 4.48e5
Cubn (Cubilin) | DRSC18256 | – | – | – | 8260 | 3.50e5
Ankrd49 | DRSC01894 | – | – | – | 7027 | 3.36e5
Rsph1 (Radial spoke head protein 1) | DRSC02864 | – | – | – | 9451 | 4.66e5
Cpr97Eb (Cuticular protein 97Eb) | DRSC15123 | – | – | – | 6107 | 3.70e5
Cyp318a1 (Cytochrome P450 318a1) | DRSC19784 | – | – | – | 5554 | 2.94e5
CG14625 | DRSC18633 | – | – | – | 6958 | 3.58e5
Rich (RIC1 homolog) | DRSC11607 | – | – | – | 7974 | 3.02e5
CG14950 (retired record) | DRSC08409 | – | – | – | 6111 | 3.62e5
CG12567 | DRSC20845 | – | – | – | 5387 | 4.14e5
Hpr1 | DRSC12296 | – | – | – | 7882 | 4.52e5
BBS8 (Bardet-Biedl syndrome 8) | DRSC00360 | – | – | – | 8014 | 5.15e5
NetA (Netrin-A) | DRSC20261 | – | – | – | 5568 | 4.20e5
CG10366 | DRSC02046 | – | – | – | 55962 | 1.81e6
CG15695 | DRSC15117 | – | – | – | 7199 | 4.16e5
CG9106 | DRSC20154 | – | – | – | 6984 | 4.48e5
Epac (Exchange protein directly activated by cAMP) | DRSC04969 | – | – | – | 2959 | 3.18e5
Epac (Exchange protein directly activated by cAMP) | DRSC04996 | – | – | – | 15656 | 2.00e6
Epac (Exchange protein directly activated by cAMP) | DRSC04997 | – | – | – | 6720 | 4.12e5
CG16781 | DRSC18117 | – | – | – | 6318 | 4.76e5
CG42694 | DRSC03955 | – | – | – | 4691 | 2.42e5
CG5033 | DRSC07410 | – | – | – | 9291 | 3.40e5
CG13615 | DRSC14618 | – | – | – | 9146 | 3.20e5
RpLP0-like (Ribosomal protein LP0-like) | DRSC06424 | – | – | – | 8983 | 4.03e5
PGAP3 (Post-GPI attachment to proteins 3) | DRSC04989 | – | – | – | 1.06e5 | 1.26e6
CG31104 | DRSC14658 | – | – | – | 6618 | 2.74e5
DnaJ-1 (DnaJ-like-1) | DRSC11145 | – | – | – | 10194 | 5.55e5
CG32809 | DRSC18507 | – | – | – | 4971 | 4.16e5
CG32809 | DRSC18562 | – | – | – | 5832 | 3.25e5
CG32809 | DRSC18592 | – | – | – | 7455 | 5.19e5
Tctp (Translationally controlled tumor protein) | DRSC15649 | – | – | – | 6107 | 3.56e5
CG10591 | DRSC09748 | – | – | – | 7830 | 4.63e5
Jupiter | DRSC15204 | – | – | – | 8032 | 5.12e5
Jupiter | DRSC15205 | – | – | – | 5978 | 3.60e5
Jupiter | DRSC15389 | – | – | – | 6275 | 3.23e5
akirin | DRSC11000 | -3 | – | – | 9206 | 4.00e5
CG13578 | DRSC04214 | – | – | – | 6344 | 3.94e5
Fpps (Farnesyl pyrophosphate synthase) | DRSC07429 | – | – | – | 9419 | 6.16e5
CG16852 | DRSC01876 | – | – | – | 7143 | 3.23e5
CG12817 | DRSC14555 | – | – | – | 6023 | 3.24e5
CNT2 (Concentrative nucleoside transporter 2) | DRSC07073 | – | – | – | 8666 | 4.00e5
CG30289 | DRSC03870 | – | – | – | 4807 | 2.91e5
CG32198 | DRSC09553 | – | – | – | 5175 | 3.19e5
CG30472 | DRSC22245 | – | – | – | 4728 | 4.93e5
Drsl1 (Drosomycin-like 1) | DRSC22490 | – | – | – | 3088 | 2.96e5
CG13138 | DRSC02235 | – | – | – | 8554 | 3.87e5
krimp (krimper) | DRSC06578 | – | – | – | 7618 | 3.33e5
CG6495 | DRSC01993 | – | – | – | 7192 | 7.28e5
Ypel (Yippee-like) | DRSC17996 | – | – | – | 8559 | 7.47e5
alpha-Est5 (alpha-Esterase-5) | DRSC12617 | – | – | – | 7891 | 4.87e5
speck | DRSC04608 | – | – | – | 1.55e5 | 9.77e5
Ski6 | DRSC02491 | – | – | – | 8184 | 3.81e5
CG32187 | DRSC10521 | – | – | – | 7168 | 3.55e5
CG5721 | DRSC06945 | – | – | – | 7968 | 3.24e5
CG2493 | DRSC02707 | – | – | – | 11445 | 2.63e6
Pgm2a (Phosphoglucomutase 2a) | DRSC07068 | – | – | – | 7346 | 3.83e5
CG33271 | DRSC10583 | – | reporter ratio raised past the hit cutoff | – | 6146 | 2.38e5
CG10909 | DRSC14282 | – | – | – | 7027 | 3.69e5
LUBEL (Linear Ubiquitin E3 ligase) | DRSC02141 | – | – | – | 8248 | 4.87e5
CG12964 | DRSC06266 | – | – | – | 4664 | 5.09e5
CG12964 | DRSC23210 | – | – | – | 5143 | 3.71e5
Mst57Dc (Male-specific transcript 57Dc) | DRSC16745 | – | – | – | 7932 | 3.93e5
CCT5 (Chaperonin containing TCP1 subunit 5) | DRSC07357 | – | – | – | 8704 | 4.08e5
CG7065 | DRSC18420 | – | – | reporter ratio raised past the hit cutoff (active) | 11856 | 4.74e5
CG9445 | DRSC05006 | – | – | – | 5907 | 4.12e5
RpS16 (Ribosomal protein S16) | DRSC04442 | – | – | – | 5882 | 3.43e5
CG13008 | DRSC19527 | – | – | – | 4776 | 3.15e5
CG13008 | DRSC19528 | – | – | – | 6179 | 5.13e5
CG31948 | DRSC00740 | – | – | – | 7220 | 4.28e5
CG13562 | DRSC04200 | – | – | – | 6659 | 3.71e5
CG34030 | DRSC08866 | – | – | – | 4791 | 3.59e5
CG13186 | DRSC06311 | – | – | – | 5143 | 4.13e5
CG32170 | DRSC09452 | – | – | – | 6710 | 4.18e5
Patr-1 (Protein associated with topo II related - 1) | DRSC14159 | – | – | – | 8633 | 3.10e5
l(2)k05819 (lethal (2) k05819) | DRSC00826 | – | – | – | 18911 | 1.03e6
CG12096 | DRSC21692 | – | – | – | 9439 | 4.22e5
stretch (retired record) | DRSC14347 | – | – | – | 6843 | 2.94e5
stretch (retired record) | DRSC14512 | – | – | – | 7311 | 3.97e5
stretch (retired record) | DRSC14541 | – | – | – | 7074 | 4.11e5
stretch (retired record) | DRSC14542 | – | – | – | 7263 | 4.72e5
stretch (retired record) | DRSC14543 | – | – | – | 7635 | 4.55e5
stretch (retired record) | DRSC23038 | – | – | – | 4575 | 2.91e5
Sol1 | DRSC15263 | – | – | – | 7195 | 3.70e5
Sol1 | DRSC15271 | – | – | – | 6176 | 3.38e5
Sol1 | DRSC15681 | – | – | – | 6975 | 4.53e5
CG34005 | DRSC05700 | – | – | – | 7635 | 6.12e5
Lamtor2 + CG30120 | DRSC05726 | – | – | – | 6327 | 4.00e5
Lamtor2 + CG30120 | DRSC06922 | – | – | – | 5496 | 3.34e5
Wdr81 (WD repeat domain 81) | DRSC02985 | – | – | – | 15902 | 3.04e5
MRP (Multidrug-Resistance like Protein 1) | DRSC02942 | – | – | – | 60474 | 4.87e5
Ttc30 (Tetratricopeptide repeat domain 30) | DRSC01300 | – | – | – | 5119 | 4.95e5
Ttc30 (Tetratricopeptide repeat domain 30) | DRSC02818 | – | – | – | 4408 | 4.91e5
CG14641 | DRSC12227 | – | – | – | 13159 | 3.90e5
CG11035 | DRSC14287 | – | – | – | 7374 | 3.78e5
sfl (sulfateless) | DRSC08828 | – | – | – | 5679 | 4.53e5
sfl (sulfateless) | DRSC08830 | – | – | – | 4815 | 4.07e5
eIF1A (eukaryotic translation initiation factor 1A) | DRSC16937 | – | – | – | 5447 | 2.53e5
croc (crocodile) | DRSC11884 | – | – | – | 7298 | 4.93e5
CG8777 | DRSC07263 | – | – | – | 8186 | 3.98e5
